The values below come from publication PMC9637104.

By UniProt entry, the sequences of proteins in these tests, tags left out.
UniProt Q8C9H6: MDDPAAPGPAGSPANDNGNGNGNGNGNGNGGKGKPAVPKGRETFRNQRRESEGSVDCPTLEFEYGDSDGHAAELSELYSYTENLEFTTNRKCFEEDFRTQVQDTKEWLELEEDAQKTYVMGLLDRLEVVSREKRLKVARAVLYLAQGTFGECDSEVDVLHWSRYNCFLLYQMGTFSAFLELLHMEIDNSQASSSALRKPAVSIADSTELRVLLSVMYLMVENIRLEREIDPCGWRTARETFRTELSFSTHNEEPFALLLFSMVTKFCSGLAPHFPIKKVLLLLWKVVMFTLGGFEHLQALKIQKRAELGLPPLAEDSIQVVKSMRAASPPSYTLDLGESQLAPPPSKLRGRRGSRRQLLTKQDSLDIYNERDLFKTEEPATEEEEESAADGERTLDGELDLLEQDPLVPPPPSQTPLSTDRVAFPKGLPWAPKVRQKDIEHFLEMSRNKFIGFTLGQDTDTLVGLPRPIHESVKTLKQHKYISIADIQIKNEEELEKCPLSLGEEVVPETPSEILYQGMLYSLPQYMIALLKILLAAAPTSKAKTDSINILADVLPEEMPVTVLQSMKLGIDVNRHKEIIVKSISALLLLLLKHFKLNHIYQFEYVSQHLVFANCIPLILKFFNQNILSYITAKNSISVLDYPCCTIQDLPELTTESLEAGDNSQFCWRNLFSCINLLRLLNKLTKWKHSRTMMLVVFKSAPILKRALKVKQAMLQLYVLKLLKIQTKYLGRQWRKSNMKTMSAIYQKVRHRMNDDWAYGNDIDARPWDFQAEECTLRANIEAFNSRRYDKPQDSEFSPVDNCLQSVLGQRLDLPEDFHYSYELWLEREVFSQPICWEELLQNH

No constants are given. Whether binding was seen depends on the method and setting. In cells and extracts the contact can be indirect. Some entries that bind do so weakly or less than the wild type.

The target in test [1] is Strip2 (mouse (endogenous in CGR8 ESCs)) (UniProt Q8C9H6). The experiment in a line: proximity ligation; Duolink PLA on fixed, permeabilised Strip2+ 0-day ESCs and 1-day EBs; primary antibodies to Strip2 and to the partner; Strip2-silenced ESCs as negative control.
The target is the same in test [2]. The experiment in a line: proximity ligation; Duolink PLA on fixed, permeabilised Strip2+ 4-day EBs; primary antibodies to Strip2 and to the partner; Strip2-silenced cells as negative control.

B1: ZFP57 (protein, UniProt Q8C6P8 1-421)
chain: MAARKQSSQPSRTPVSYEDVAVSFTQEEWEYLTSTQKTLYQKVMSETFKNLTFVGSKKKPQEPSSDLQDKNEEQEKSSSCTGVFKGGPFFFCLTCGKCFKKNTFLFNHQFPVRSRRLAVTNPQSRKGKGYKAQHRGERPFFCNFCGKTYRDASGLSRHRRAHLGYRPRSCPECGKCFRDQSEVNRHLKVHQNKPAASNQAGNQASNQRLKSRVPPTTPRSQAPALKYVKVIQGPVARAKARNSGASTLNVRSNSITVVRSREKISCPYCHITFTMRTCLLTHLKIHFRRQPNQHFCCKESAHSSNTLRMQKIYTCPVCDSSFRGKESLLDHLCCQRPIRFSKCWEILGHLLGYLHEPVVLGNIFKVRDSSGKRMESRRRRRKRACTENPETEGLSGKGRVAPWEMEGATSPESPVTEEDSD
B1: the binding result in test [1] and in test [2] was “binds” in each case.
